Source: the supplement of paper PMC10470496
Structures can show the parent of a compound that is named as a salt. Some of the results follow. Repeats are few or missing, and single values can be far off.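 Three clinical Candida auris isolates (clades III, IV and I) from the CDC resistance isolate bank were grown in RPMI-1640 at 35°C. Growth was background-corrected OD600 relative to same-plate vehicle-only wells. Hits required over 50% inhibition in at least two strains and a plate-corrected B-score above 0.1.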

Key:
Assay in all cases: growth relative to vehicle control (OD600 ratio) (fraction); higher = less inhibition
Conditions in all cases: 24 h
C. auris AR-384 = test system: C. auris AR-384
C. auris AR-386 = test system: C. auris AR-386
C. auris AR-387 = test system: C. auris AR-387

SMILES | growth (C. auris AR-384; 1 µM) | growth (C. auris AR-384; 10 µM) | growth (C. auris AR-386; 1 µM) | growth (C. auris AR-386; 10 µM) | growth (C. auris AR-387; 1 µM) | growth (C. auris AR-387; 10 µM)
CCC1=C[C@@H]2CN(C1)Cc1c([nH]c3ccccc13)[C@@](C(=O)OC)(c1cc3c(cc1OC)N(C)[C@H]1[C@@](O)(C(=O)OC)[C@H](OC(C)=O)[C@]4(CC)C=CCN5CC[C@]31[C@@H]54)C2 [Vinorelbine Tartrate] | 0.99 | 0.94 | 1.12 | 0.8 | 0.72 | 0.85
NC(=O)c1ncn([C@@H]2O[C@H](CO)[C@@H](O)[C@H]2O)n1 [Ribavirin] | 0.82 | 0.72 | 0.74 | 0.53 | 0.75 | 0.7
c1ccc(C2CN3CCSC3=N2)cc1 (single isomer, unassigned; (-)) [(-)-Tetramisole] | 0.77 | 0.51 | 0.7 | 0.75 | 0.65 | 0.83
Nc1ccc(S(N)(=O)=O)cc1 [Sulfanilamide] | 0.79 | 0.87 | 0.74 | 0.74 | 0.73 | 0.85
CC(C)c1nc(N(C)S(C)(=O)=O)nc(-c2ccc(F)cc2)c1/C=C/[C@@H](O)C[C@@H](O)CC(=O)O [Rosuvastatin Calcium] | 0.74 | 0.75 | 0.85 | 0.68 | 0.7 | 0.71
CO/N=C(\C(=O)N[C@@H]1C(=O)N2C(C(=O)O)=C(COC(N)=O)CS[C@H]12)c1ccco1 [Cefuroxime sodium] | 0.98 | 1.14 | 1.19 | 0.84 | 0.99 | 1.04
CC1(C)S[C@@H]2[C@H](NC(=O)[C@H](N)c3ccccc3)C(=O)N2[C@H]1C(=O)O [Ampicillin Trihydrate] | 0.66 | 0.63 | 0.53 | 0.63 | 0.63 | 0.79
COc1cc2c(cc1OC)CN(CCc1ccc(NC(=O)c3cccc4c(=O)c5cccc(OC)c5[nH]c34)cc1)CC2 | 0.87 | 0.79 | 0.66 | 0.87 | 0.82 | 0.73
CN(C)Cc1c(C(=O)NCCOc2ccc(C(=O)NO)cc2)oc2ccccc12 | 0.84 | 0.91 | 0.73 | 0.59 | 0.73 | 0.71
CC(C(=O)O)c1ccc2c(c1)Cc1cccnc1O2 (centres undefined) [Pranoprofen] | 0.86 | 1 | 0.91 | 0.83 | 0.64 | 0.65
CS(=O)(=O)CCNCc1ccc(-c2ccc3ncnc(Nc4ccc(OCc5cccc(F)c5)c(Cl)c4)c3c2)o1 | 0.78 | 0.51 | 0.62 | 0.7 | 0.82 | 0.84
CCN(CC)C(=O)C1(c2ccccc2)CC1CN (centres undefined) [Milnacipran HCl] | 0.86 | 0.77 | 0.86 | 0.99 | 0.78 | 0.8
CC(C)(C)NCC(O)c1ccc(O)c(CO)c1 (centres undefined) [Salbutamol Sulfate] | 0.8 | 0.85 | 0.87 | 0.82 | 1.1 | 1.06
NC[C@@H]1O[C@H](O[C@H]2[C@@H](O)[C@H](O[C@@H]3[C@@H](O)[C@H](N)C[C@H](N)[C@H]3O[C@H]3O[C@H](CO)[C@@H](O)[C@H](O)[C@H]3N)O[C@@H]2CO)[C@H](N)[C@@H](O)[C@@H]1O [Paromomycin Sulfate] | 0.51 | 1.15 | 0.93 | 0.88 | 0.88 | 0.9
C#Cc1cccc(Nc2ncnc3cc4c(cc23)OCCOCCOCCO4)c1 [Icotinib] | 0.96 | 0.84 | 0.6 | 0.81 | 0.71 | 0.89
Cc1cccc(CN2CCN(C(c3ccccc3)c3ccc(Cl)cc3)CC2)c1 (centres undefined) [Meclizine 2HCl] | 0.74 | 0.74 | 0.65 | 0.76 | 0.7 | 0.81
C[C@]12C=CC(=O)C=C1CC[C@H]1[C@@H]3C[C@@H](O)[C@](O)(C(=O)CO)[C@@]3(C)C[C@H](O)[C@@]12F [Triamcinolone] | 0.72 | 0.89 | 1.08 | 1.08 | 0.82 | 0.78
Cc1ccc(F)c(NC(=O)Nc2ccc(-c3cccc4[nH]nc(N)c34)cc2)c1 [Linifanib (ABT-869)] | 1 | 0.68 | 0.58 | 0.74 | 0.91 | 0.86
NC(=O)[C@@H](CCC(F)(F)F)N(Cc1ccc(-c2ncon2)cc1F)S(=O)(=O)c1ccc(Cl)cc1 | 1.14 | 0.59 | 0.81 | 1.04 | 0.76 | 0.67
CO[C@@]12[C@H](COC(N)=O)C3=C(C(=O)C(C)=C(N)C3=O)N1C[C@@H]1N[C@@H]12 [Mitomycin C] | 1.04 | 0.8 | 0.91 | 0.91 | 0.93 | 0.79
Cc1nc2c([nH]1)-c1ccccc1N(C(=O)c1ccc(NC(=O)c3ccccc3-c3ccccc3)cc1)CC2 [Conivaptan HCl] | 0.7 | 1.14 | 0.91 | 0.87 | 0.91 | 1.09
COc1ccc(C2CNC(=O)C2)cc1OC1CCCC1 (centres undefined) [Rolipram] | 1.04 | 1.06 | 0.49 | 0.71 | 0.86 | 0.83
NC(=O)c1cccnc1 [Nicotinamide (Vitamin B3)] | 1.12 | 1.27 | 1.11 | 1.39 | 1.38 | 1.36
O[C@@H]1CO[C@H]2[C@@H]1OC[C@@H]2O [Isosorbide] | 1.27 | 1.28 | 1.56 | 1.45 | 1.54 | 1.47
c1cc(CN2CCCNCCNCCCNCC2)ccc1CN1CCCNCCNCCCNCC1 [Plerixafor 8HCl (AMD3100 8HCl)] | 1.33 | 1.5 | 1.13 | 1.16 | 0.9 | 1.24
Oc1ccc(OCc2ccccc2)cc1 [Monobenzone] | 0.91 | 0.54 | 0.77 | 1.11 | 0.81 | 0.92
CC/C(=C(\c1ccccc1)c1ccc(OCCN(C)C)cc1)c1ccccc1 [Tamoxifen] | 0.69 | 1.17 | 1.04 | 0.84 | 0.87 | 0.89
C=CC(=O)Nc1cccc(Nc2nc(Nc3ccc(N4CCN(C(C)=O)CC4)cc3OC)ncc2C(F)(F)F)c1 [Rociletinib (CO-1686, AVL-301)] | 0.78 | 0.84 | 0.75 | 0.75 | 0.74 | 0.9
O=c1[nH]c(=O)n([C@H]2C[C@H](O)[C@@H](CO)O2)cc1I [Idoxuridine] | 0.97 | 0.89 | 1.11 | 1.12 | 1.07 | 1.1

Just growth (C. auris AR-384; 10 µM), for some of the entries so far:

| SMILES | growth (C. auris AR-384; 10 µM) |
| --- | --- |
| NC(=O)c1cccnc1 [Nicotinamide (Vitamin B3)] | 1.27 |
| C=CC(=O)Nc1cccc(Nc2nc(Nc3ccc(N4CCN(C(C)=O)CC4)cc3OC)ncc2C(F)(F)F)c1 [Rociletinib (CO-1686, AVL-301)] | 0.84 |
